Laboratory results: patent publication US20060217294A1, “Compounds binding to p-selectin” (YAMANOUCHI EUROPE B.V., priority 2002, published 2006)
At least one peptide structure holds a part that was inferred or is arguable (an end, a ring closure or a residue). Peptide text beside a SMILES is read from it. * marks the point of attachment. Galloyl = O=C(c1cc(O)c(O)c(O)c1)*

Sequences of proteins named here, by UniProt entry; tags and fusion partners are left off. A line that says so, or that is headed by a name, gives the form on record, which may keep a tag or linker.
UniProt P16109, with tags, fused parts or gaps limits assumed: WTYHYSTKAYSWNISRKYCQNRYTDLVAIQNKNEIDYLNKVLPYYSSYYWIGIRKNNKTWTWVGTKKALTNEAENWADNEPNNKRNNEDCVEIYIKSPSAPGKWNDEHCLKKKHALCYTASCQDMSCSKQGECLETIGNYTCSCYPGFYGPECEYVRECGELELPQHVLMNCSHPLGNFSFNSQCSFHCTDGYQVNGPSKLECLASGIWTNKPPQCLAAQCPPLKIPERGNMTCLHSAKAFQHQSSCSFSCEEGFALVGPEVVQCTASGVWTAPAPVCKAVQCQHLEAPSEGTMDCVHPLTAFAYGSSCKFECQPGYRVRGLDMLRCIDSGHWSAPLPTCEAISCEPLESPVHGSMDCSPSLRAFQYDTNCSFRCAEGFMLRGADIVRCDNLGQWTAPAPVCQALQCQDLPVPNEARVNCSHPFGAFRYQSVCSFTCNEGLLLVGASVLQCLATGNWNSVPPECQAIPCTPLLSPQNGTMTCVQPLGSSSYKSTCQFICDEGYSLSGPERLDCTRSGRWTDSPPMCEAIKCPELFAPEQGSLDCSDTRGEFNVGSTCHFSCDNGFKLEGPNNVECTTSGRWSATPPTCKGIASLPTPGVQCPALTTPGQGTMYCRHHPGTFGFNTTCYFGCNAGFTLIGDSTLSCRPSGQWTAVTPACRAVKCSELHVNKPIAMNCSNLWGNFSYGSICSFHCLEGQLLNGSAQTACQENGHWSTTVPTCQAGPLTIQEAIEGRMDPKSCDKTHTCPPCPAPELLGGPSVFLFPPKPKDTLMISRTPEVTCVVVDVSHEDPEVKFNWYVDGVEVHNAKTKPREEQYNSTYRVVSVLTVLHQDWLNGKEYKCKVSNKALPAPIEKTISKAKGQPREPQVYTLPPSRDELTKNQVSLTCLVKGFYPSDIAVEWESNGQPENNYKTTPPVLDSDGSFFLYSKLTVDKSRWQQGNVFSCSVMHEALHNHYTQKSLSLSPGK

Target: T1, human P-selectin (Homo sapiens, UniProt P16109)
T1 construct: IgG-Fc (fusion partner); purchased R&D Systems Europe Ltd., Abingdon, United Kingdom
Test: Competition assay with TM11-PO (competition ELISA)
Assay type: binding
Conditions: Table 2, average of at least 3 experiments at 8 concentrations, read-out: IC50 for human P-selectin as determined by competition Elisa
Description: Compounds according to the invention, as prepared in examples 1, 2 and 3 and some reference peptide compounds were assayed for its ability to inhibit TM11-PO binding to human P-selectin. […] For competition studies, a 96 wells microtiter plate (high binding, flat bottom, Costar, Corning, U.S.A.) was coated overnight at 4° C. with 10 μg/ml goat anti-human IgG (Fc specific) (Sigma-Aldrich, Zwijndrecht, the Netherlands) in coating buffer (50 mM NaHCO3, pH 9.6). Subsequently, wells were washed with assay buffer and incubated for 1 hour at 37° C. with blocking buffer (3% BSA in assay buffer). After washing with assay buffer, the wells were incubated for 2 hours at 37° C. with the human P-selectin IgG-Fc chimera (R&D Systems Europe Ltd., Abingdon, United Kingdom) (0.3 μg/ml). Subsequently, wells were washed with assay buffer and incubated for 1 hour at 4° C. with the TM11-PO complex. The wells were washed six times with washing buffer (0.1% Tween 20 in assay buffer). […] (TMB)/hydrogen peroxide (H2O2) (Pierce, Rochford, U.S.A.) was added and wells were incubated at room temperature for 15 minutes. The reaction was halted by addition of 2 M H2SO4 and the absorbance was measured at 450 nm.

## CC(C)[C@H](NC(=O)[C@H](CC(=O)O)NC(=O)[C@@H](NC(=O)[C@H](Cc1c[nH]c2ccccc12)NC(=O)[C@H](CCC(=O)O)NC(=O)c1cc(O)c(O)c(O)c1)C(C)C)C(=O)O [Peptide 13, GA-EWVDV] (Galloyl-EWVDV-OH; C-terminus assumed)
  IC50: 31 nM
